From PubChem BioAssay record AID1159506 (NCATS, 2015).

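Genome-wide siRNA knockdown in TC32 Ewing sarcoma cells, comparing luciferase light from an NR0B1-promoter reporter with a CMV-promoter reporter 48 hours after transfection. Each siRNA was applied at 20 nM. A z-score of the log NR0B1-over-CMV signal, less the median of siRNAs with the same seed; more negative means a stronger specific loss of the NR0B1 reporter.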

This is part of the screen; most of the strongest results are not listed here. Sequences are the guide (antisense) strand, without overhang.

| # | Sequence | target gene | seed-corrected z-score |
|---|---|---|---|
| 1 | `UCCAGUAUGAGAGCGAAUG` | CTCF | 0.1827 |
| 2 | `AAAAUGGUAGUAAUCUUCC` | PCSK6 | 0.4457 |
| 3 | `UUGUCUAUGAUCAUUGUCU` | IDH3B | -0.9666 |
| 4 | `UCCAUUUUAAGACUGCCUC` | RAB32 | -0.494 |
| 5 | `UAAAUAGGAGCAAUAAACC` | GTSCR1 | 0.02883 |
| 6 | `UACGAGCUGUCGAAGAGCC` | PPT2 | -0.3624 |
| 7 | `UUUGGGAGUGGAUUUCUUU` | PRR15L | -0.1458 |
| 8 | `AAAGAGGUCGUUUUUAUUC` | LZTR1 | -0.6066 |
| 9 | `UCAUGGUCCAAGGUGUGCA` | SGCA | -1.53 |
| 10 | `AUACUAUAAACCAACUUUG` | CDH8 | -0.1265 |
| 11 | `ACGGAUUUAUCAUUCACCU` | PAM16 | 0.9513 |
| 12 | `UGUUCAUCAUUUGUUCUCG` | DLG3 | 0.5436 |
| 13 | `UUAGGUCACACUCAUUUGC` | RAB38 | -0.161 |
| 14 | `UACAGCACAAAAGCCGCGA` | CCDC107 | 0.01521 |
| 15 | `UCCUCUUCAACGCAUCUGC` | FAM83G | -0.3418 |
| 16 | `UCUGUGAAGGCGGAUAUCC` | BAG4 | -0.2085 |
| 17 | `UCCUGGACAACAGAUACUC` | PDIK1L | -0.6748 |
| 18 | `AAUCUGGUGAGUGUUUUAC` | COX7B2 | -0.5326 |
| 19 | `AUUGCAUUCAUACAGGAGC` | FBP2 | 0.3068 |
| 20 | `UUUGAUAGCAAGUCUAUUC` | AK7 | -0.698 |
| 21 | `UUUGAGAAGAGGGUUGUUU` | FAM84A | 0.1973 |
| 22 | `UAGUCAUUAGGAACUGUUG` | ABI1 | 0.3024 |
| 23 | `UCUGGGAACAUAUCCAGCU` | DAO | 0.04173 |
| 24 | `AAGUUUAUCUGUUGCUUUG` | C7orf76 | -0.8069 |
| 25 | `UCUGUUUUUGGUCUCAGGC` | SLC2A9 | 0.8614 |
| 26 | `UUUCUGGUGUAAAUGACUC` | RPS25P4 | -0.1177 |
| 27 | `UUCGAUUUUGUAGAUAUUC` | NOP58 | 0.8497 |
| 28 | `UGUACUUCAACCCUUUAGG` | ENAH | -0.2407 |
| 29 | `UUUAUUCGCUGAAAGAUCC` | LRGUK | -0.2842 |
| 30 | `UGUUAUUCCAGCCUAUGCG` | ACRC | -0.02467 |
| 31 | `UCUGUAAGUCAUUUCCUUG` | ZBTB8OSP2 | -0.3488 |
| 32 | `UUUGUCAAACUUAGCAUUC` | ZCCHC16 | -0.1212 |
| 33 | `UCUACUAAGGGUUUCAUCC` | LOC126860 | 0.1385 |
| 34 | `ACUUCCUUUACAUCAAUGC` | MAGEA10 | -0.3566 |
| 35 | `UUGGAAUUAAAAUGCUUAC` | CLCA3P | -0.5612 |
| 36 | `AAGUUUCUGCCGUAAGUGC` | FAM198B | -0.6803 |
| 37 | `UCUGGUGUCCCUAACAUCU` | RILP | 0.6123 |
| 38 | `UGUUGUACAUGUUAGUCCC` | CDHR2 | -0.3401 |
| 39 | `UAAGAUCCCGUCGCUGGUG` | RHOBTB2 | -0.4759 |
| 40 | `UUGGUGAUCAUUCGGGAGG` | C19orf47 | -0.01917 |
| 41 | `AACUGAACCAUCGACUCCG` | ARNTL | 0.171 |
| 42 | `AUGUUGUUGACAUCGGUCC` | HIP1R | -1.027 |
| 43 | `UUCUCUUCAAGCUGGGACC` | CSTB | 0.1942 |
| 44 | `UCAUGGUCCAGGGUAUGGU` | HK3 | -1.747 |
| 45 | `UUGCUCACCAAUAAUGACC` | HARS2 | 1.341 |
| 46 | `UGCUGGAUCAGUCCAAUGC` | ZFP69B | 0.04255 |
| 47 | `AUACUAGUAACCGCAUUGC` | ZSWIM6 | -0.8165 |
| 48 | `UCGAGGUUGAGAUGAAUGU` | RBM8A | -1.121 |
| 49 | `UUUUUGAGUACCACAUUGG` | TRIM64 | -0.07461 |
| 50 | `UCACCUUAGCAUGAGAUCC` | GIP | 0.2601 |
| 51 | `UUCAUGUUCAGUCCGUAGG` | NARS2 | -0.4753 |
| 52 | `UCUCGAUCAAAGCUCAGGC` | PCDH1 | -0.5758 |
| 53 | `UCUACAUUCUUGGUCAUUC` | DUOX2 | 0.07133 |
| 54 | `CAGACACUCAGACUGGGUC` | ZNF655 | 0.03207 |
| 55 | `UCUAGAACUGUUCUCAGCC` | ZNF775 | 0.6614 |
| 56 | `UGUUACUUUACCGUCUUGC` | MUC19 | 0.2195 |
| 57 | `UGUUAAACUGGGAGGAUCC` | CHSY1 | -0.837 |
| 58 | `UACUCAACAGUUACAGUGG` | TMEM159 | 0.2147 |
| 59 | `UUCCUUAUAAGCCUGCUUC` | ZNF326 | -0.07322 |
| 60 | `UGAUGAACCGCUGCACCUC` | CYP2W1 | 0.3715 |
| 61 | `AGCAAGACCAUGUUCCUGU` | ZNF789 | 0.9326 |
| 62 | `ACAGCGACCAAUCAUCUGC` | FBXO41 | -0.1016 |
| 63 | `AUUGCGGCAGCAUUUCAUC` | WFDC2 | -0.09808 |
| 64 | `UUCAUGUGCAUGUUCAGUC` | APP | 0.2614 |
| 65 | `AAAAUCAUAACGAAUAGUG` | EAF1 | -0.0288 |
| 66 | `UAGUACUCCACUAAUCACG` | CENPC | -0.2151 |
| 67 | `UUUGUGGAUUUCGUGACUC` | OFCC1 | -0.1814 |
| 68 | `UAUUGUCCCAGUUUCCACC` | RPS6KA6 | -0.3455 |
| 69 | `AACCUUUCCAUCAUUGUUC` | MRPL13 | 0.7229 |
| 70 | `UCACAUCCCAGAGAUUACC` | ESPL1 | -0.08439 |

For reference, 6 entries once more:

| Sequence | target gene | seed-corrected z-score |
|---|---|---|
| `UCCAUUUUAAGACUGCCUC` | RAB32 | -0.494 |
| `UAAGAUCCCGUCGCUGGUG` | RHOBTB2 | -0.4759 |
| `AUUGCAUUCAUACAGGAGC` | FBP2 | 0.3068 |
| `UGUUAAACUGGGAGGAUCC` | CHSY1 | -0.837 |
| `AAAAUGGUAGUAAUCUUCC` | PCSK6 | 0.4457 |
| `UCAUGGUCCAGGGUAUGGU` | HK3 | -1.747 |